From paper PMC12147762
These are yes or no findings as the source states them, for the method shown. In cells and extracts the contact can be indirect. Some entries that bind do so weakly or less than the wild type. For some of these results: Where a sequence is shown, tags or fusion partners need not be part of it. One block for each binder: values may come before it.

How the values were obtained:
[1] = target: T1, POU2AF1 (human (endogenous in MM1.S)) (UniProt Q16633); assay: co-IP; Endogenous proteins in MM1.S lysate (Pierce IP lysis buffer, sonicated); IP with IRF4 or POU2AF1 antibody overnight at 4°C, Dynabeads Protein G, immunoblot
T1 sequence: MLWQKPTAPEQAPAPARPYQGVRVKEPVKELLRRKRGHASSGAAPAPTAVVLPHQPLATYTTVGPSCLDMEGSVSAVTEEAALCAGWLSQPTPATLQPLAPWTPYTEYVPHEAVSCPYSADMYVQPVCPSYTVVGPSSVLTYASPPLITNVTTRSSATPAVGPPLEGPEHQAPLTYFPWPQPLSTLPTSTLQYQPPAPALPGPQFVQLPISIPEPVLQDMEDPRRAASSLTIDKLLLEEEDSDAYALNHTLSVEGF

[2] = target: T2, IRF4 (human (endogenous in MM1.S)) (UniProt Q15306); assay: as above
T2 sequence: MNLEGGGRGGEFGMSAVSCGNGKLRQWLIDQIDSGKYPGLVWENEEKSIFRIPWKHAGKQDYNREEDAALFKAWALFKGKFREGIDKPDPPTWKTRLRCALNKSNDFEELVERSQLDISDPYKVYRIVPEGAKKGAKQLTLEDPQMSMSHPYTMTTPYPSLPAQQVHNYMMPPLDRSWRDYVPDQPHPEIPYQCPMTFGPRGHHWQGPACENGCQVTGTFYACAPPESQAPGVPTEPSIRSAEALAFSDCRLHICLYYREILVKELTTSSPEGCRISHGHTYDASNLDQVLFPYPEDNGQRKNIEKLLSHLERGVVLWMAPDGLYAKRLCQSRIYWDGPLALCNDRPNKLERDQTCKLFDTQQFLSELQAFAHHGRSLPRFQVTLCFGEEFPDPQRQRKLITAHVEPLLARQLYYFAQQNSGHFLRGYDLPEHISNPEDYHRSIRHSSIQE

POU2AF1-HA = target: T3, POU2AF1-HA (UniProt Q16633); assay: co-IP; HEK293FT transiently transfected with POU2AF1-HA and IRF4-Flag; lysate in Pierce IP lysis buffer; IP with HA-tag or Flag-tag antibody overnight at 4°C, Dynabeads Protein G, immunoblot
T3 sequence: T1 sequence

IRF4-Flag = target: T4, IRF4-Flag (UniProt Q15306); assay: as above
T4 sequence: T2 sequence

B1: IRF4 (protein, UniProt Q15306 1-451)
chain: T2 sequence
binding [1]: binds

B3: IRF4-Flag (protein, UniProt Q15306 1-451)
chain: T2 sequence
binding (POU2AF1-HA): binds

Next, values leading:

binding [2]: binds
B2: POU2AF1 (protein, UniProt Q16633 1-256)
chain: T1 sequence

binding (IRF4-Flag): binds
B4: POU2AF1-HA (protein, UniProt Q16633 1-256)
chain: T1 sequence
